At least one peptide structure holds a part that was inferred or is arguable (an end, a ring closure or a residue). Bridge positions count the residues as written; N and C are the ends. Square brackets hold non-standard residues; d marks the D form. Peptide text beside a SMILES is read from it. Trp(2-Me) = Cc1[nH]c2ccccc2c1C[C@H](N)C(=O)O; d2Nal = N[C@H](Cc1ccc2ccccc2c1)C(=O)O
System: 42 kDa complex (somatostatin receptor sub-type 3 or 5), MCF7 human cell line
Assay: Displacement of radioiodinated 11-Tyr somatostatin-14 from somatostatin receptors, 42 kDa complex (gel electrophoresis/autoradiography)
Format: binding
Conditions: 10^-6 M; auto-radiographies in electrophoresis

For `Cc1[nH]c2ccccc2c1C[C@H](NC(=O)[C@@H]1CSSC[C@H](NC(=O)[C@H](N)Cc2ccc3ccccc3c2)C(=O)N[C@@H](Cc2ccc(O)cc2)C(=O)N[C@H](Cc2c[nH]c3ccccc23)C(=O)N[C@@H](CCCCN)C(=O)N[C@@H](C(C)C)C(=O)N1)C(N)=O` [peptide c] (H-[d2Nal]CY[dW]KVC[Trp(2-Me)]-NH2; disulfide 2-7), the “suppression of the 42 kDa radioligand-receptor complex” value was “suppressed”.

— patent US5962409A, “Somatostatin-analogous cyclic peptides with inhibitory activity on growth hormone” (priority 1995, dated 1999)
